# According to the supplement of paper PMC12024529:
# Counter-ions that a name gives are not always drawn. The list shows a part of the results. Baselines shift from plate to plate; read single values as rough.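 HEK293 lines stably express B-domain-deleted factor VIII fused to Gaussia luciferase, wild type or a misfolding-prone missense mutant. Scores equal triplicate-well mean luminescence minus DMSO mean, divided by DMSO standard deviation; scores of 2 or higher are hits. Low scores may indicate reduced secretion or worse cell viability.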
# What was measured:
# HEK293 WT BDD-FVIII-Gluc = experiment: secreted FVIII-Gluc luciferase Z-score vs DMSO control; higher = more FVIII-Gluc secretion; settings: 5 µM; 24 h
# [1] = system: HEK293 p.N1941S BDD-FVIII-Gluc; experiment: as above; settings: 5 µM; 24 h
Compound,secreted FVIII-Gluc luciferase Z-score (HEK293 WT BDD-FVIII-Gluc),secreted FVIII-Gluc luciferase Z-score [1]
"CC(=O)Oc1ccccc1C(=O)Nc1ncc([N+](=O)[O-])s1 [Nitazoxanide (Alinia, Annita)]",inactive: -1.96,inactive: -0.207
Clc1ccc(COC(Cn2ccnc2)c2ccc(Cl)cc2Cl)cc1 (configuration not stated) [Econazole nitrate (Spectazole)],inactive: -1.29,inactive: -3.21
O=c1[nH]cc(F)c(=O)[nH]1 [Adrucil (Fluorouracil)],inactive: -0.917,inactive: -1.96
CC1(C)[C@H](C(=O)O)N2C(=O)C[C@H]2S1(=O)=O [Sulbactam sodium (Unasyn)],inactive: 0.519,inactive: -4.34
C=CC[N+]1([C@H]2C[C@H]3[C@@H]4CC[C@H]5C[C@H](O)[C@@H](N6CCOCC6)C[C@]5(C)[C@H]4CC[C@]3(C)[C@H]2OC(C)=O)CCCC1 [Rocuronium bromide],inactive: -11.5,inactive: -0.54
CN1CCN(C2=Nc3ccccc3Oc3ccc(Cl)cc32)CC1 [Loxapine Succinate],active: 12.9,active: 2.46
O=C1CCC(N2C(=O)c3ccccc3C2=O)C(=O)N1 (configuration not stated) [Thalidomide],inactive: -2.34,inactive: 0.397
NC(=O)c1cn(Cc2c(F)cccc2F)nn1 [Rufinamide (Banzel)],inactive: -0.992,inactive: -5.14
CN(C)c1cc(NC(=O)CNC(C)(C)C)c(O)c2c1CC1CC3C(N(C)C)C(=O)C(C(N)=O)=C(O)C3(O)C(=O)C1=C2O (configuration not stated) [Tigecycline],inactive: -2.48,inactive: -0.877
Nc1ccc(S(=O)(=O)Nc2nccs2)cc1 [Sulfathiazole],inactive: -1.26,inactive: 0.671
O=c1[nH]c(=O)n(C2CCCO2)cc1F (configuration not stated) [Ftorafur],inactive: -4.13,inactive: 0.0433
CN1CCCCC1CCN1c2ccccc2Sc2ccc([S+](C)[O-])cc21 (configuration not stated) [Mesoridazine Besylate],inactive: 0.0491,inactive: -0.683
CC(C)/N=c1\cc2n(-c3ccc(Cl)cc3)c3ccccc3nc-2cc1Nc1ccc(Cl)cc1 [Clofazimine],inactive: 0.537,inactive: -1.97
C#C[C@]1(O)CC[C@H]2[C@@H]3CCC4=CC(=O)CC[C@@H]4[C@H]3CC[C@@]21C [norethindrone],inactive: -0.693,inactive: 0.825
CCCSc1ccc2[nH]c(NC(=O)OC)nc2c1 [Albendazole (Albenza)],inactive: -6.77,inactive: -5.76
CCCCc1oc2ccccc2c1C(=O)c1cc(I)c(OCCN(CC)CC)c(I)c1 [Amiodarone HCl],inactive: -1.64,inactive: -1.2
CC(C)NCC(O)c1cc(O)cc(O)c1 (configuration not stated) [Metaproterenol Sulfate],inactive: -1.24,inactive: 0.459
CC1=C(CC(=O)O)c2cc(F)ccc2/C1=C\c1ccc([S+](C)[O-])cc1 (configuration not stated) [Sulindac (Clinoril)],inactive: 0.159,inactive: -1.72
COc1ccc(/C=C/C(=O)Nc2ccccc2C(=O)O)cc1OC,inactive: 0.997,inactive: 0.0892
CNS(=O)(=O)CCc1ccc2[nH]cc(C3CCN(C)CC3)c2c1 [Naratriptan HCl],inactive: -4.47,inactive: -0.939
CCC1(c2ccccc2)C(=O)NCNC1=O [Primidone (Mysoline)],inactive: -4.14,inactive: -2.03
COC1C=COC2(C)Oc3c(C)c(O)c4c(O)c(c5c(c4c3C2=O)=NC2(CCN(CC(C)C)CC2)N=5)NC(=O)C(C)=CC=CC(C)C(O)C(C)C(O)C(C)C(OC(C)=O)C1C (configuration not stated) [Rifabutin (Mycobutin)],inactive: -3.71,inactive: -2.19
Cc1c(C(=O)NN2CCCCC2)nn(-c2ccc(Cl)cc2Cl)c1-c1ccc(Cl)cc1,inactive: -4.39,inactive: -0.994
CCOC(=O)c1ccc(C#Cc2ccc3c(c2)C(C)(C)CCS3)nc1 [Tazarotene (Avage)],inactive: -0.305,inactive: -1.13
C[N+]1(C)CCC(=C(c2ccccc2)c2ccccc2)CC1 [Diphemanil methylsulfate],inactive: -0.915,inactive: -1.14
CN(C)/N=N/c1[nH]cnc1C(N)=O [Dacarbazine (DTIC-Dome)],inactive: 0.83,inactive: -2.5

# Single records, from the list above.
# COC1C=COC2(C)Oc3c(C)c(O)c4c(O)c(c5c(c4c3C2=O)=NC2(CCN(CC(C)C)CC2)N=5)NC(=O)C(C)=CC=CC(C)C(O)C(C)C(O)C(C)C(OC(C)=O)C1C (configuration not stated) [Rifabutin (Mycobutin)] as listed: secreted FVIII-Gluc luciferase Z-score (HEK293 WT BDD-FVIII-Gluc): inactive: -3.71; secreted FVIII-Gluc luciferase Z-score [1]: inactive: -2.19
# CCCCc1oc2ccccc2c1C(=O)c1cc(I)c(OCCN(CC)CC)c(I)c1 [Amiodarone HCl] as listed: secreted FVIII-Gluc luciferase Z-score (HEK293 WT BDD-FVIII-Gluc): inactive: -1.64; secreted FVIII-Gluc luciferase Z-score [1]: inactive: -1.2
